In the supplement of paper PMC10849652:
This is one part of the list.

Amino acid sequences for entries named in this document (tags omitted). A change or cut given only in a name is not applied to a line headed by its entry.
UniProt Q8N0Y2: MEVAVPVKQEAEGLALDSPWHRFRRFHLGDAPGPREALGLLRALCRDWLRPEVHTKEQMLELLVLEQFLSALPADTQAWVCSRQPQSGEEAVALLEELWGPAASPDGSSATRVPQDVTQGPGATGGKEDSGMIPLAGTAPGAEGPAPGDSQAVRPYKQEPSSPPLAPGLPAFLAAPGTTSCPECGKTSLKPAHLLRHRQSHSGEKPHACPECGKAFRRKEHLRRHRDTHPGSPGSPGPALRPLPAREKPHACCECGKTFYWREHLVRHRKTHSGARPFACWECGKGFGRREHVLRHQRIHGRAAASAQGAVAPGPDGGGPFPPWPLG
UniProt Q16587: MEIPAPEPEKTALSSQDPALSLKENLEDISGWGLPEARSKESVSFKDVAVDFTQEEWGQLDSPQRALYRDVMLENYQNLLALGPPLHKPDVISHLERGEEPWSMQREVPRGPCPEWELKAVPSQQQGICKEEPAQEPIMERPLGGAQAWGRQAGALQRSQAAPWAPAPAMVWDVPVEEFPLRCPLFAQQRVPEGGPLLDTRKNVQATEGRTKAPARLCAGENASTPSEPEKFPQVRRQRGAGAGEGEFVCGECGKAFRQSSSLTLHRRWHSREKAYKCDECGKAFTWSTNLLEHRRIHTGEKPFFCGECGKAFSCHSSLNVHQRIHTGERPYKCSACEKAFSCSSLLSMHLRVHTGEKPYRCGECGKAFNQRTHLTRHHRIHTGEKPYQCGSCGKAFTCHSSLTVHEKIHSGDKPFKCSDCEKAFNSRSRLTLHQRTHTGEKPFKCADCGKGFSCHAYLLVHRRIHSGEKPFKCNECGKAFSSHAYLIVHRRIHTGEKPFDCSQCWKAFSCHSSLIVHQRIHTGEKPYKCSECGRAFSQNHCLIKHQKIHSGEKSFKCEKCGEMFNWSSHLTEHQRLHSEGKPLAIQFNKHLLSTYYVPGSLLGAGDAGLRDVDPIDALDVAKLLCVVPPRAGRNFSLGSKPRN
UniProt Q9P0T4: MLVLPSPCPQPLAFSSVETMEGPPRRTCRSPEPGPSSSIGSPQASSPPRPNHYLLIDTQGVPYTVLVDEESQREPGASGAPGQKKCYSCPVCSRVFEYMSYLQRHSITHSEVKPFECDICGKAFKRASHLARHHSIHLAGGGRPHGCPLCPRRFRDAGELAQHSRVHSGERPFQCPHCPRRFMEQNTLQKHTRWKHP
UniProt Q9NY61: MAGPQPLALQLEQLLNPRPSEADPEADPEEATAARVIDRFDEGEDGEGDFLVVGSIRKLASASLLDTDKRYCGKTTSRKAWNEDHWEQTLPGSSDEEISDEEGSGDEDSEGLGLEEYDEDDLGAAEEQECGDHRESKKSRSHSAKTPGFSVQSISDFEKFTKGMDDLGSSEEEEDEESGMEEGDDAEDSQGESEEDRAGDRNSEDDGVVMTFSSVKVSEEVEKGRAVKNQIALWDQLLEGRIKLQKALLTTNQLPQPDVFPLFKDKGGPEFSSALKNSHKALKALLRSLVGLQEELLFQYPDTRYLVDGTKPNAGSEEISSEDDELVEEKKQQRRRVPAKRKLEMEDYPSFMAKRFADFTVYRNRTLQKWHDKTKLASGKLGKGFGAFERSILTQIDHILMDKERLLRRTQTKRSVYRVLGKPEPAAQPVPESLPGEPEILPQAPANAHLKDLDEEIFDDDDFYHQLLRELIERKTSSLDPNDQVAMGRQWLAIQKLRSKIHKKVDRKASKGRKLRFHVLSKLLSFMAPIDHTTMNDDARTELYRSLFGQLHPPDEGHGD
UniProt Q96ME7: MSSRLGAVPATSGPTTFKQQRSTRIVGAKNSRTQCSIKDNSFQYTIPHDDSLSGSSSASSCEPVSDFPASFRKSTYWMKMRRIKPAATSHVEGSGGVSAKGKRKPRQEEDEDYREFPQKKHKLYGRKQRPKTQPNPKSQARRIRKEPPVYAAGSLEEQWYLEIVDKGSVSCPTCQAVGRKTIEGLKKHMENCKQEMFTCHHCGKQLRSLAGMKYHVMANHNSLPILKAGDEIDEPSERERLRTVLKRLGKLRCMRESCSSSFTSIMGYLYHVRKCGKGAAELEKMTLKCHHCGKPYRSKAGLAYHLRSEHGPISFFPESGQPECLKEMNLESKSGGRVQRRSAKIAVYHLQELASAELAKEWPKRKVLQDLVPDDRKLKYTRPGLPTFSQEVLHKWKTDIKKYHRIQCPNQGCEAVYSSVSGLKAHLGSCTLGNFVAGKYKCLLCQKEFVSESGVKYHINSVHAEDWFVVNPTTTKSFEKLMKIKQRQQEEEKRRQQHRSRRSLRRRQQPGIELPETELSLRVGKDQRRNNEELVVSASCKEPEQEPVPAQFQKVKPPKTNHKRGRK
UniProt Q86V21: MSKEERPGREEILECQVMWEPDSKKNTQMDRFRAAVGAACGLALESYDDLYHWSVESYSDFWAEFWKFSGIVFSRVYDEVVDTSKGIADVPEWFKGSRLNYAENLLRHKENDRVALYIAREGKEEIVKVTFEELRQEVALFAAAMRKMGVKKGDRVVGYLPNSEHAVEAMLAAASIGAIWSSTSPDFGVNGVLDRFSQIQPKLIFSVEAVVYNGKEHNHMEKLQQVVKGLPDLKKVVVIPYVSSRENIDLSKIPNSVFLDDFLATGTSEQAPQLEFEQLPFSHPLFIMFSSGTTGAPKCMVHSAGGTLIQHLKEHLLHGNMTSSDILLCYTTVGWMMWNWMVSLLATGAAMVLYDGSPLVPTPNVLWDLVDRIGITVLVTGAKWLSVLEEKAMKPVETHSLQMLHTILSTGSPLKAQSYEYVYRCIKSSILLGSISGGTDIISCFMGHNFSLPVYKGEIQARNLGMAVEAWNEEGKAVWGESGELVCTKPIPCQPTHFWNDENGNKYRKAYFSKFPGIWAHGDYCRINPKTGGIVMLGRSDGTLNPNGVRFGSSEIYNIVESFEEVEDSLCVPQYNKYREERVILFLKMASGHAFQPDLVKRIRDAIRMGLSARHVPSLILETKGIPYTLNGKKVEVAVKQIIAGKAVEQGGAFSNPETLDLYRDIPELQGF
UniProt Q9UHR6: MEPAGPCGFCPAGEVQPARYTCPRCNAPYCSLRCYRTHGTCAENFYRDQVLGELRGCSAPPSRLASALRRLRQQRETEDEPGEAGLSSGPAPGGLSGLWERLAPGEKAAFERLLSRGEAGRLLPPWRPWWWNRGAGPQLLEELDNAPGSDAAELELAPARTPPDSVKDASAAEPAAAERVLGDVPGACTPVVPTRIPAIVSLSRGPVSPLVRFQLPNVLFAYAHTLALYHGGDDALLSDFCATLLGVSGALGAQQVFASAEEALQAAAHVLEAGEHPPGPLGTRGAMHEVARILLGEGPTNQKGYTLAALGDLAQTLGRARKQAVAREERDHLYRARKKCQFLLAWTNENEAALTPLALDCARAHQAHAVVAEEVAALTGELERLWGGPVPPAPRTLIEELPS
UniProt Q9NRG9: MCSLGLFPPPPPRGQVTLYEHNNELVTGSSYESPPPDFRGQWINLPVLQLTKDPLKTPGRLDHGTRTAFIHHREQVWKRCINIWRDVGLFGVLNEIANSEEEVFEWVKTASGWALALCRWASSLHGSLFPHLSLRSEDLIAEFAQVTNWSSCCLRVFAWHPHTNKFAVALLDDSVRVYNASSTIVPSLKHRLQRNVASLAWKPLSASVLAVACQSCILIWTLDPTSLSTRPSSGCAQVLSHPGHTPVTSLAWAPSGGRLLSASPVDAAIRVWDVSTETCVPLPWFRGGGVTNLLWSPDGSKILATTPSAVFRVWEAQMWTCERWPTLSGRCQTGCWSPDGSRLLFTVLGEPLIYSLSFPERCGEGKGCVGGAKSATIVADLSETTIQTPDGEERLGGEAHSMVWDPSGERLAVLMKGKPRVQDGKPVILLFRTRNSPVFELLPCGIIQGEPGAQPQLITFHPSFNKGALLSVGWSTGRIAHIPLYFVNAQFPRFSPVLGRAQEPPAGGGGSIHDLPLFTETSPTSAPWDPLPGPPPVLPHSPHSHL
UniProt P42684, whole entry, looked up: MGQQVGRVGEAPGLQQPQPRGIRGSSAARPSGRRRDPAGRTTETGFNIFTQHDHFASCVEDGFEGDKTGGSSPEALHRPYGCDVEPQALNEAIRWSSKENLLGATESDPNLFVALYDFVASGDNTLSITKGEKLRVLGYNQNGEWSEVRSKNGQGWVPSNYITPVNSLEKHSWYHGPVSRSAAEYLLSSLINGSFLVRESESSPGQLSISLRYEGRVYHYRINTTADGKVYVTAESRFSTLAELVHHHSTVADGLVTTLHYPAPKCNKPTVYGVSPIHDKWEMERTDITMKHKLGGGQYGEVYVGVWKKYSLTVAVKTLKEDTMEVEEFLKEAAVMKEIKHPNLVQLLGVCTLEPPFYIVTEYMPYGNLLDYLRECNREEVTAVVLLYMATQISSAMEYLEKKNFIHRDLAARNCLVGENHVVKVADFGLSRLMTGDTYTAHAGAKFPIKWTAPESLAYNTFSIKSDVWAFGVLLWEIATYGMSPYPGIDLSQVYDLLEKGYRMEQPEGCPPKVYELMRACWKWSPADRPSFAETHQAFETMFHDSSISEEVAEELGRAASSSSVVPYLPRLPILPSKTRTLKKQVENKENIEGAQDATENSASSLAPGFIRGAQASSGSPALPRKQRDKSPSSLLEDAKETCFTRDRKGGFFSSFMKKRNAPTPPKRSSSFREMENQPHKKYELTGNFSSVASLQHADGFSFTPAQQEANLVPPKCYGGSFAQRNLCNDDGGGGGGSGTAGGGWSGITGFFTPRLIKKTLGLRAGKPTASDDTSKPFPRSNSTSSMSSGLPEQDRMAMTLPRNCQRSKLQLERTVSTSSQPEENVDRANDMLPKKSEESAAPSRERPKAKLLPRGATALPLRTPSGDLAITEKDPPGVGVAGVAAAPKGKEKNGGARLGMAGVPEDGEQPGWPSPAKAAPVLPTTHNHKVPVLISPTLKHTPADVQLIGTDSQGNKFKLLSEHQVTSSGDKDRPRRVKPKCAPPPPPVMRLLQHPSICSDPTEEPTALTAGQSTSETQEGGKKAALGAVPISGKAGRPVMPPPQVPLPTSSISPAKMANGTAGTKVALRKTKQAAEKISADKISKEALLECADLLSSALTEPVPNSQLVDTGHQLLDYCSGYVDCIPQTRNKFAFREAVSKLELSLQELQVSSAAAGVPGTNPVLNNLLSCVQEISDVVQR
UniProt Q5JTZ9, whole entry, looked up: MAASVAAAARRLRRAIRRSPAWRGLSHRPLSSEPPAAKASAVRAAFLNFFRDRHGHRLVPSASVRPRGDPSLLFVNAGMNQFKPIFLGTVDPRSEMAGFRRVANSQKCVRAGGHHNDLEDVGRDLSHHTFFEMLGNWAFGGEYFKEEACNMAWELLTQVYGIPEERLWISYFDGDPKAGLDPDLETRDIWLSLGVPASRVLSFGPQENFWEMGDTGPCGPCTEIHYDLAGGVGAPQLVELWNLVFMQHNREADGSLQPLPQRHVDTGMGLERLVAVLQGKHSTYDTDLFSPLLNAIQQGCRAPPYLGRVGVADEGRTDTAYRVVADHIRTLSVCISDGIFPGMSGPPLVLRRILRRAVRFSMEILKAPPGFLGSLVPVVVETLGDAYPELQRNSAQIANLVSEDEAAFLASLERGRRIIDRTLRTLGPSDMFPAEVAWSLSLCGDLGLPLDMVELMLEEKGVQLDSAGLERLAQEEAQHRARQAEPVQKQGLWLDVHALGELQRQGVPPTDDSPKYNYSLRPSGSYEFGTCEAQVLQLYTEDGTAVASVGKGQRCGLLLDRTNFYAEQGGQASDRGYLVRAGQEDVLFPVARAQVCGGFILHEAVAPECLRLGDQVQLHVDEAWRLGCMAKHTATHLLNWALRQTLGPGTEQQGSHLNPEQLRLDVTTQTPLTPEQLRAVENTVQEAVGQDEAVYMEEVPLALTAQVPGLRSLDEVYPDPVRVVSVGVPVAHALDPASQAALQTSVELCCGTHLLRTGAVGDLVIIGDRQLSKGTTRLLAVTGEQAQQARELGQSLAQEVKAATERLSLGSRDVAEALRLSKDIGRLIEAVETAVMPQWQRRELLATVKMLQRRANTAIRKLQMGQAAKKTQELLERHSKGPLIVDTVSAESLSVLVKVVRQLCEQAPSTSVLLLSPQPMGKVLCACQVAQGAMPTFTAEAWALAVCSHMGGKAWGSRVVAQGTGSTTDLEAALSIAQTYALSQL
UniProt Q19AV6: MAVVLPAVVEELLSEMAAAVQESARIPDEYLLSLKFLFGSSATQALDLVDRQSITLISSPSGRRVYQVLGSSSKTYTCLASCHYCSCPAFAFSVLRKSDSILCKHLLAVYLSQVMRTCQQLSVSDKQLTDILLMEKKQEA
UniProt Q8NDX6: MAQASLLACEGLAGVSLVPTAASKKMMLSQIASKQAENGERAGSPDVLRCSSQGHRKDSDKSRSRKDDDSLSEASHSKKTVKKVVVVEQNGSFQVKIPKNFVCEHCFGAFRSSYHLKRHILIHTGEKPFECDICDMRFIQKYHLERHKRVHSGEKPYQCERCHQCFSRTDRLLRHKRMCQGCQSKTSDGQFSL
UniProt Q9H7C9: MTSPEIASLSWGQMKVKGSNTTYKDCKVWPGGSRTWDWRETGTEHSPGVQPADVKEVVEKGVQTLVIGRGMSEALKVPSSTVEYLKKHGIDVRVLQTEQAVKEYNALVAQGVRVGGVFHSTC

Key:
[1] = compound: CC1=C(SC2=C1C(=N[C@H](C3=NN=C(N32)C)CC(=O)N)C4=CC=C(C=C4)Cl)C; assay: log2 fold change, soluble protein after heating vs DMSO (PISA); higher = thermal stabilisation; K562 cells, 10 uM, 30 min; active = over 0.2 and 3.5 SD of the protein, either way, in both replicates (recomputed)
Outline: (§1)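 K562 cells at 2×10^6 cells/mL were treated with 10 μM compound for 30 min. Aliquots were heated for 3 min across 48°C-58°C, pooled, and extracted in PBS with 0.5% NP-40 at 4°C; soluble protein was the supernatant after 21,000xg for 90 min. Soluble protein was quantified by TMTpro 16plex LC-MS/MS with channel sums equalised, and reported as log2 fold change in thermal stability against DMSO controls, with values from duplicates.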

[2] = compound: CC1=C2C(=CC=C1)N=C(N(C2=O)C3=CC=CC=C3C)CN4C=NC5=C(N=CN=C54)N; assay: as above
Outline: as §1

[3] = compound: c1ccc([C@@H]2C[C@H]2NC2CCNCC2)cc1; assay: as above
Outline: as §1

[4] = compound: C1=CC=C(C=C1)[C@H](COC2=CC3=C(C=C2)NC(=O)N3)NC(=O)C4=CC=CN(C4=O)CC5=CC(=C(C=C5)F)F; assay: as above
Outline: as §1

[5] = compound: C1=CC=C(C=C1)[C@H](COC2=CC3=C(C=C2)NC(=O)N3)NC(=O)C4=CC=CN(C4=O)CC5=CC(=C(C=C5)F)F; assay: log2 fold change, soluble protein after heating vs DMSO (PISA); higher = thermal stabilisation; K562 lysate, 10 uM; active = over 0.2 and 3.5 SD of the protein, either way, in both replicates (recomputed)
Outline: (§2)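 To prepare the extract, K562 pellets were dounce-homogenised in PBS pH 7.4 with 1 mM MgCl2, giving crude material at 1 mg/mL protein. This was treated with 10 μM compound for 30 min, then heated in aliquots for 3 min over 48°C-58°C before pooling and addition of NP-40 to 0.5% at 4°C. Centrifugation at 21,000xg for 90 min left soluble protein in the supernatant, which TMTpro 16plex LC-MS/MS quantified with equalised channel sums. Results are log-two fold changes in thermal stability compared with solvent controls, from duplicates.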

[6] = compound: CC1=C(SC2=C1C(=N[C@H](C3=NN=C(N32)C)CC(=O)N)C4=CC=C(C=C4)Cl)C; assay: as above
Outline: as §2

[7] = compound: CC1=C2C(=CC=C1)N=C(N(C2=O)C3=CC=CC=C3C)CN4C=NC5=C(N=CN=C54)N; assay: as above
Outline: as §2

[8] = compound: Cc1sc2c(c1C)C(c1ccc(Cl)cc1)=N[C@@H](CC(=O)OC(C)(C)C)c1nnc(C)n1-2; assay: as above
Outline: as §2

[9] = compound: c1ccc([C@@H]2C[C@H]2NC2CCNCC2)cc1; assay: as above
Outline: as §2

[10] = compound: Cc1sc2c(c1C)C(c1ccc(Cl)cc1)=N[C@@H](CC(=O)OC(C)(C)C)c1nnc(C)n1-2; assay: log2 fold change, soluble protein after heating vs DMSO (PISA); higher = thermal stabilisation; K562 cells, 10 uM, 30 min; active = over 0.2 and 3.5 SD of the protein, either way, in both replicates (recomputed)
Outline: as §1

[11] = compound: C1=CC2=NC=CN=C2C=C1/C=C/3\C(=O)NC(=O)S3; assay: log2 fold change, soluble protein after heating vs DMSO (PISA); higher = thermal stabilisation; K562 lysate, 10 uM; active = over 0.2 and 3.5 SD of the protein, either way, in both replicates (recomputed)
Outline: as §2

ibrutinib = compound: C=CC(=O)N1CCC[C@@H](n2nc(-c3ccc(Oc4ccccc4)cc3)c3c(N)ncnc32)C1 [ibrutinib]; assay: as above
Outline: as §2

[12] = compound: CC(=O)c1cnc2ccc(-c3cc(Cl)c(O)c(Cl)c3)nc2c1N[C@H]1CC[C@H](CN(C)C)CC1; assay: as above
Outline: as §2

[13] = compound: CC1=C(C(CC(=O)N1)C2=CC=C(C=C2)C(F)(F)F)C(=O)NC3=C(C=C4C(=C3)C=NN4)F; assay: as above
Outline: as §2

[14] = compound: CC1=CC=C(C=C1)SC2=C3C=C(SC3=CN=C2)C(=O)N; assay: as above
Outline: as §2

[15] = compound: CCCS(=O)(=O)Nc1ccc(F)c(C(=O)c2c[nH]c3ncc(Cl)cc23)c1F; assay: as above
Outline: as §2

barasertib = compound: CCN(CCCOc1ccc2c(Nc3cc(CC(=O)Nc4cccc(F)c4)[nH]n3)ncnc2c1)CCOP(=O)(O)O [barasertib]; assay: as above
Outline: as §2

volasertib = compound: CC[C@@H]1C(=O)N(C)c2cnc(Nc3ccc(C(=O)N[C@H]4CC[C@H](N5CCN(CC6CC6)CC5)CC4)cc3OC)nc2N1C(C)C [volasertib]; assay: as above
Outline: as §2

alisertib = compound: COc1cc(Nc2ncc3c(n2)-c2ccc(Cl)cc2C(c2c(F)cccc2OC)=NC3)ccc1C(=O)O [alisertib]; assay: as above
Outline: as §2

[16] = compound: COc1cc2nc(-c3cc(F)ccc3O)nc(N[C@@H]3CNC[C@H]3C(C)(C)O)c2cc1OC; assay: as above
Outline: as §2

gefitinib = compound: COc1cc2ncnc(Nc3ccc(F)c(Cl)c3)c2cc1OCCCN1CCOCC1 [gefitinib]; assay: as above
Outline: as §2

lapatinib = compound: CS(=O)(=O)CCNCc1ccc(-c2ccc3ncnc(Nc4ccc(OCc5cccc(F)c5)c(Cl)c4)c3c2)o1 [lapatinib]; assay: as above
Outline: as §2

pictilisib = compound: CS(=O)(=O)N1CCN(Cc2cc3nc(-c4cccc5[nH]ncc45)nc(N4CCOCC4)c3s2)CC1 [pictilisib]; assay: as above
Outline: as §2

bafetinib = compound: Cc1ccc(NC(=O)c2ccc(CN3CC[C@H](N(C)C)C3)c(C(F)(F)F)c2)cc1Nc1nccc(-c2cncnc2)n1 [bafetinib]; assay: as above
Outline: as §2

nilotinib = compound: Cc1cn(-c2cc(NC(=O)c3ccc(C)c(Nc4nccc(-c5cccnc5)n4)c3)cc(C(F)(F)F)c2)cn1 [nilotinib]; assay: as above
Outline: as §2

[17] = compound: Cc1nc(Nc2n[nH]c3c2CN(C(=O)N[C@H](CN(C)C)c2ccccc2)C3(C)C)c2sccc2n1; assay: as above
Outline: as §2

[18] = compound: Cc1ncc(-c2ccnc(Nc3ccc(S(C)(=O)=O)cc3)n2)n1C(C)C; assay: as above
Outline: as §2

tipifarnib = compound: Cn1cncc1[C@@](N)(c1ccc(Cl)cc1)c1ccc2c(c1)c(-c1cccc(Cl)c1)cc(=O)n2C [tipifarnib]; assay: as above
Outline: as §2

[19] = compound: NC(=O)c1cnc(N[C@@H]2CCCC[C@@H]2N)nc1Nc1cccc(-n2nccn2)c1; assay: as above
Outline: as §2

Measured: log2 fold change

ZNF444 (UniProt Q8N0Y2)
inactive: [1] -0.052 | [2] -0.412 | [3] -0.031

ZNF74 isoform 5 (UniProt Q16587)
inactive: [4] -0.083 | [2] 0.097

ZNF581 (UniProt Q9P0T4)
inactive: [1] 0.205 | [3] -0.047

AAK1 (UniProt Q2M2I8)
inactive: [5] -0.024 | [6] -0.028 | [7] -0.04 | [8] -0.088 | [9] -0.093

AATF (UniProt Q9NY61)
inactive: [5] 0.05 | [6] -0.002 | [7] 0.203 | [8] 0.014 | [9] 0.143

ZNF639 (UniProt Q9UID6)
inactive: [2] 0.286 | [10] -0.131

ZNF580 (UniProt Q9UK33)
inactive: [2] -0.16 | [10] 0.029

ZNF512 (UniProt Q96ME7)
inactive: [1] -0.117 | [3] -0.363

ZNRD2 (UniProt G3V1B8)
inactive: [4] 0.082 | [10] -0.104

AACS (UniProt Q86V21)
inactive: [5] -0.112 | [6] 0.042 | [7] 0.013 | [8] -0.002 | [9] 0.079

ZNF618 (UniProt B1ALC2)
inactive: [4] -0.048 | [1] -0.046 | [3] 0.071

ZNFX1 (UniProt Q9P2E3)
inactive: [2] 0.134

Two consecutive entries already listed:
ZNF618 (UniProt B1ALC2)
inactive: [4] -0.048 | [1] -0.046 | [3] 0.071

ZNFX1 (UniProt Q9P2E3)
inactive: [2] 0.134

More entries follow.

ABCF3 (UniProt Q9NUQ8)
inactive: [5] 0.002 | [6] -0.016 | [7] 0.031 | [8] 0.013 | [9] 0.06

ABHD17B (UniProt Q5VST6)
inactive: [5] 0.014 | [6] 0.044 | [7] -0.028 | [8] -0.044 | [9] -0.198

ZNHIT2 (UniProt Q9UHR6)
inactive: [2] -0.328

AAAS (UniProt Q9NRG9)
inactive: [5] 0.028 | [6] -0.006 | [7] -0.035 | [8] 0.042 | [9] 0.059

ZNF644 (UniProt Q9H582)
inactive: [2] -0.047

ABL2 (UniProt P42684)
inactive: [5] -0.026 | [6] 0.016 | [7] 0 | [8] -0.14 | [9] -0.105

ACHE isoform 2 (UniProt P22303)
inactive: [11] -0.005 | [5] 0.122 | ibrutinib -0.028 | [12] -0.22 | [13] 0.071 | [6] -0.073 | [14] 0.234 | [15] 0.049 | barasertib 0.038 | volasertib 0.185 | alisertib 0.072 | [16] 0.02 | gefitinib -0.255 | lapatinib 0.144 | pictilisib 0.051 | bafetinib 0.085 | nilotinib 0.039 | [17] 0.106 | [18] -0.017 | tipifarnib -0.123 | [19] -0.153

AARS2 (UniProt Q5JTZ9)
inactive: [5] 0.014 | [6] -0.076 | [7] 0.026 | [8] 0.041 | [9] 0.045

ZNF318 (UniProt Q5VUA4)
inactive: [1] -0.137 | [3] -0.079

ZNF618 isoform 2 (UniProt Q5T7W0)
inactive: [4] -0.015 | [2] -0.198 | [10] -0.005

ZZZ3 (UniProt Q8IYH5)
inactive: [10] -0.153

ZNF800 (UniProt Q2TB10)
inactive: [1] -0.201 | [10] 0.23 | [3] 0.336

ZSWIM7 (UniProt Q19AV6)
inactive: [4] 0.051 | [2] -0.352 | [10] 0.286

ZSCAN26 (UniProt Q16670)
inactive: [10] 0.09

ABCB10 (UniProt Q9NRK6)
inactive: [5] 0.013 | [6] 0.016 | [7] 0.015 | [8] 0.027 | [9] 0.004

ZNF740 (UniProt Q8NDX6)
inactive: [4] 0.172 | [1] 0.004 | [2] 0.004 | [3] 0.075

ACLY (UniProt P53396)
inactive: [5] 0.011 | [6] 0.03 | [7] 0.004 | [8] 0.03 | [9] 0.023

AAMDC (UniProt Q9H7C9)
inactive: [5] -0.03 | [6] -0.042 | [7] 0.094 | [8] -0.009 | [9] -0.023

ACAT2 (UniProt Q9BWD1)
inactive: [5] 0.024 | [6] -0.03 | [7] -0.021 | [8] -0.029 | [9] -0.041

ABHD11 (UniProt Q8NFV4)
inactive: [5] 0.072 | [6] -0.031 | [7] 0.028 | [8] -0.021 | [9] -0.098

ZSCAN21 (UniProt Q9Y5A6)
inactive: [1] -0.323 | [3] 0.034
